“And” between values parts separate entries of the source, which are not always exact repeats. Equal values may be shown once. About 6,200 (1.8%) of roughly 340,000 compounds were called active. Inconclusive results, whose numbers are uncertain, are shown with a selection of clear calls. The call rests on the fitted dose curve; in most records, active means well fitted activation curve with a large enough effect; inconclusive means small, poorly fitted or top-dose-only effect; inactive means no such curve, though single readings can be large or run the other way. Potencies beside an inconclusive call are fits to weak or partial responses and may not hold up.
Test: A quantitative high throughput screen for small molecules that induce DNA re-replication in SW480 colon adenocarcinoma cells. Further: nearly all actives have a fitted effect of over 55% in size. On re-replication activation: % of control where 0% means no effect.
Details: Hoechst DNA content imaging, 48 h; re-replication activation: at 46.1 µM (top of the series)
Summary of the method: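 SW480 cells exposed to compounds for 48 hr at 37 C, 5% CO2, then Hoechst-stained 40 min. Nuclear DNA content imaged by fluorescence scanning (405 nm excitation, 500-530 nm emission); re-replication scored as increased high-intensity nuclei.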
Potency means the concentration at half of the fitted maximal effect.

| SMILES | Potency | re-replication activation |
| --- | --- | --- |
| O=C(CN1CCN(S(=O)(=O)c2ccc3ccccc3c2)CC1)NC(=O)NC1CCCCC1 | inconclusive: 29.1 µM [activator, single point] |  |
| C=CCn1c(O)c(C(CC)=Nc2ccc(N(C)C)cc2)c(=O)[nH]c1=O | inconclusive: 11.6 µM [activator, partial curve, poor fit] |  |
| CCOC(=O)[C@]12Cc3cc(N(C)C)ccc3[C@H]1N(Cc1ccccc1)C(=O)c1ccccc12 |  | inactive: -1.12% |
| COc1ccc(NC(=O)C(=O)NNC(=O)C(C)Oc2ccc(Cl)cc2Cl)cc1 (stereo not given) | inconclusive: 29.1 µM [activator, single point] |  |
| CCOC(=O)c1ccc(-[n+]2c(-c3ccccc3)cc(-c3ccccc3)cc2-c2ccccc2)cc1 | inconclusive: 0.231 µM [activator, full curve, poor fit] |  |
| CC12CC[C@H]3[C@@H](CCC4(O)C[C@H](O)CCC34/C=N/NC(=O)c3ccccc3F)C1(O)CCC2C1=CC(=O)OC1 (stereo not given in full) |  | inactive: -0.216% |
| CCC(=O)N1N=C(c2c(O)n(C)c(=O)n(C)c2=O)CC1c1ccccc1 (stereo not given) | inconclusive: 29.1 µM [activator, single point] |  |
| CC(C)(C)NCC1(CO)SC(N)=NC1=O (stereo not given) | inconclusive: 25.9 µM [activator, single point] |  |
| CNCCCN1c2ccccc2CCc2ccccc21 | inconclusive: 14.3 µM [activator, single point] and inconclusive: 29.1 µM [activator, single point] |  |
| COC(=O)C1=C(c2ccc(-c3ccccc3)c(F)c2)C[C@@H]2CC[C@H]1N2C(=O)NCC1CC1 | inconclusive: 0.411 µM [activator, partial curve, poor fit] |  |
| CCOP(=O)(OCC)C(NC(=O)c1ccccc1)=C(Cl)Cl | inconclusive: 0.0052 µM [activator, full curve, poor fit] |  |
| Cc1ccc(-c2cc(-c3ccccc3)cc(-c3ccccc3)[n+]2-c2ccc(C(=O)O)cc2)cc1 | inconclusive: 0.731 µM [activator, partial curve, poor fit] |  |
| CC(N)C(=O)OC(C)(C)Cc1ccc(Cl)cc1 (stereo not given) | inconclusive: 0.146 µM [activator, partial curve, poor fit] |  |
| Oc1ccc(O)c2c1C1(Cl)C(Cl)=C(Cl)C2(Cl)C1(Cl)Cl | inconclusive: 23.1 µM [activator, single point] |  |
| CCN(CCCl)c1cc(CN(C)C)cc(NC(=O)c2ccc(C(=O)Nc3cc(CN(C)C)cc(N(CC)CCCl)c3)cc2)c1 | inconclusive: 1.03 µM [activator, full curve] |  |
| COc1ccc(C=C2C(=O)N(C)C(=O)N(C)C2=O)cc1CSc1ccccn1 | inconclusive: 29.1 µM [activator, single point] |  |
| N#Cc1ncc(N=Cc2ccc(N(CCCl)CCCl)cc2)s1 | inconclusive: 5.17 µM [activator, partial curve] |  |
| Cc1ccc(/C=C2/Sc3ccc(C(=O)N4CCC5(CC4)OCCO5)cc3NC2=O)cc1 | inconclusive: 29.1 µM [activator, single point] |  |

Looked up above.
`CCOC(=O)c1ccc(-[n+]2c(-c3ccccc3)cc(-c3ccccc3)cc2-c2ccccc2)cc1` | Potency: inconclusive: 0.231 µM [activator, full curve, poor fit]
`CC(N)C(=O)OC(C)(C)Cc1ccc(Cl)cc1` (stereo not given) | Potency: inconclusive: 0.146 µM [activator, partial curve, poor fit]

(continued)

| SMILES | Potency | re-replication activation |
| --- | --- | --- |
| C[C@]12CC[C@@H]3c4ccc(O)c(O)c4CC[C@H]3[C@@H]1CC[C@@H]2O | inconclusive: 28.2 µM [activator, single point] |  |
| COc1ccc(C(=O)c2c(C)n(CCN3CCOCC3)c3ccccc23)cc1 | inconclusive: 33.5 µM [activator, single point] |  |
| N/C(=N/[N+](=O)[O-])N1CCN(C(=O)c2ccc(Cl)cc2)CC1 | inconclusive: 0.092 µM [activator, full curve, poor fit] |  |
| CNC(=O)OCC[N+](C)(C)C |  | inactive: 0.758% |
| CN1C(=O)[C@@H](NC(=O)c2cc3ccccc3[nH]2)N=C(c2ccccc2)c2ccccc21 | inconclusive: 11.9 µM [activator, full curve] |  |
| O=C1NC(=O)N(Cc2ccco2)C(=O)/C1=C/C=C/c1ccco1 | inconclusive: 16.4 µM [activator, partial curve, poor fit] |  |
| CC/C=C/CC(=O)N[C@@H](c1ccccc1)[C@@H](O)C(=O)O[C@H]1C[C@@]2(O)[C@@H](OC(=O)c3ccccc3)C3[C@](C)(C(=O)[C@H](OC(C)=O)C(=C1C)C2(C)C)[C@@H](O)C[C@H]1OC[C@@]31OC(C)=O (stereo not given in full) | inconclusive: 0.206 µM [activator, full curve, poor fit] |  |
| COc1cccc(NC(=O)[C@@H](NC(=O)N2C[C@H]3C[C@@H](C2)c2cccc(=O)n2C3)C(C)C)c1 | inconclusive: 1.84 µM [activator, partial curve, poor fit] |  |
| COc1ccc(OC)c(C(O)C2CCCCN2)c1 (stereo not given) | inconclusive: 0.651 µM [activator, full curve, poor fit] |  |
| Nc1ncnc2c1ccn2[C@@H]1O[C@H](CO)[C@@H](O)[C@H]1O | inconclusive: 0.651 µM [activator, full curve, poor fit] |  |
| Cc1ccc2c(c1)C1CN(C)CCC1N2C(=O)Nc1cccc(Cl)c1 (stereo not given) |  | inactive: 14.3% |
| C=CCn1c(O)c(/C(CC)=N/NC(=S)Nc2ccccc2)c(=O)[nH]c1=O | inconclusive: 4.11 µM [activator, single point] |  |
| COc1ccc(Cn2c(O)c(/C=C3/C=CC=N3)c(=O)[nH]c2=O)cc1 | inconclusive: 20.6 µM [activator, single point] |  |
| CCOC(=O)CC(NC(=O)C(Cc1ccc(N(CCCl)CCCl)cc1)NC(C)=O)C(=O)OCC (stereo not given) | inconclusive: 16.4 µM [activator, single point] |  |
| CCOc1cc2c(cc1OCC)-n1cccc1C(c1ccccc1OC)NC2 (stereo not given) | inconclusive: 29.1 µM [activator, single point] |  |
| COC12C(COC(N)=O)C3=C(C(=O)C(C)=C(N)C3=O)N1CC1C2N1C (stereo not given) | inconclusive: 2.91 µM [activator, full curve, poor fit] |  |
| C[C@H]1O[C@@H](OC2CC[C@]3(C=O)[C@H]4CC[C@]5(C)[C@@H](C6=CC(=O)OC6)CC[C@]5(O)[C@@H]4CC[C@]3(O)C2)CC2OC(C)(C)OC21 (stereo not given in full) | inconclusive: 0.82 µM [activator, full curve, poor fit] |  |
